The whole screen tested about 140,000 compounds, of which about 4,300 (3.1%) were called active. Inconclusive results, whose numbers are uncertain, are shown with a selection of clear calls.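 How the source made its calls: active means readout at or below -70, meaning at least 70% loss of cells showing the perinucleolar compartment, a nuclear body marking cancer cells; inconclusive means readout between -30 and a set limit; inactive means the rest.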
Test: High Content Assay for Compounds that inhibit the Assembly of the Perinucleolar Compartment;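 further: plate controls were DMSO wells for no effect and camptothecin positive control wells for full effect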
Conditions: PC3M PTB-GFP, PNC prevalence imaging, 16 h; at 10 µM; stronger effect = lower value
Procedure, shortened: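 Compounds are pinned in duplicate onto adhered PC3M cells stably expressing GFP-tagged PTB and incubated 16 h at 37 C. Cells are then fixed, nuclei stained with Hoechst, and PNC-positive cells counted.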
With CCNC(=S)Nc1ccc2cn[nH]c2c1 the activity change (PNC), negative = inhibition was inactive: 27.4%. With COc1cccc(C(=O)c2c[nH]c(C(=O)NCc3cccs3)c2)c1 the activity change (PNC), negative = inhibition was inconclusive: -37.9%. For Cc1c(NC(=S)NC(=O)COc2ccccc2)c(=O)n(-c2ccccc2)n1C, the activity change (PNC), negative = inhibition was inconclusive: -70.2%. With CC1Oc2ccccc2N(CC(=O)NCC2CCCO2)C1=O (stereo unspecified) the activity change (PNC), negative = inhibition was inconclusive: -34%. For CCCCOc1ccccc1-c1cc(C(=O)O)[nH]n1, the activity change (PNC), negative = inhibition was inconclusive: -31.8%. For COCC(C)NC(=O)CSc1nc2ccccc2n1CCc1ccccc1 (stereo unspecified), the activity change (PNC), negative = inhibition was inconclusive: -38.4%. With Cc1ccc2nc(NC(=O)CSc3ncnc4c3oc3ccccc34)sc2c1 the activity change (PNC), negative = inhibition was active: -108%. In the case of Cc1csc(SCC(=O)c2c(N)n(CC(C)C)c(=O)n(C)c2=O)n1, the activity change (PNC), negative = inhibition is reported as inconclusive: -63.2%. With COC(=O)C(Cc1ccc(O)cc1)NC(=O)C(C)Oc1ccccc1 (stereo unspecified) the activity change (PNC), negative = inhibition was inconclusive: -61.6%. With O=C(CSc1nc2ccccc2s1)NCCOc1ccccc1 the activity change (PNC), negative = inhibition was inconclusive: -37.8%. In the case of CCC(C)(c1nnnn1-c1c(C)cccc1C)N(N=O)c1cccc(C(F)(F)F)c1 (stereo unspecified), the activity change (PNC), negative = inhibition is reported as inconclusive: -30.5%. With CCc1cc(=O)oc2c(C)c(OCC(=O)N3CCCc4ccccc43)ccc12 the activity change (PNC), negative = inhibition was inconclusive: -63.7%. For COc1ccc(S(=O)(=O)N(CCc2ccccc2)CC(=O)N2CCOCC2)cc1, the activity change (PNC), negative = inhibition was inconclusive: -30.6%. With Cc1ccc(S(=O)(=O)N2CCN(C(=O)c3cc(=O)[nH]c4ccccc34)CC2)c(C)c1 the activity change (PNC), negative = inhibition was inactive: 0.536%. With Fc1ccc2[nH]c3c(N4CCN(c5ccccc5)CC4)ncnc3c2c1 the activity change (PNC), negative = inhibition was active: -126%. For O=C(NCc1ccco1)c1cc2cc3ccc(Cl)cc3nc2o1, the activity change (PNC), negative = inhibition was inconclusive: -70.9%. For O=C(CNc1ccc2ccccc2c1)N/N=C/c1ccc([N+](=O)[O-])o1, the activity change (PNC), negative = inhibition was inactive: 0.995%. With CCOc1ccc(S(=O)(=O)Nc2cc(Cl)ccc2O)cc1 the activity change (PNC), negative = inhibition was inactive: -7.55%. With CC1CCN(S(=O)(=O)c2ccc(NC(=O)CSc3nnnn3C)cc2)CC1 the activity change (PNC), negative = inhibition was inconclusive: -37.5%. With COC(=O)c1ccc(N2C(=O)c3ccc(OC)c(OC)c3C2=O)cc1 the activity change (PNC), negative = inhibition was inconclusive: -38.8%. For O=C(Nc1nc(-c2ccco2)c(-c2ccco2)s1)C1CCC1, the activity change (PNC), negative = inhibition was inconclusive: -41.3%. For COc1ccc(NC(=S)NNC(=O)Cn2nc([N+](=O)[O-])cc2C)cc1, the activity change (PNC), negative = inhibition was inactive: -24.5%. In the case of O=C(c1ccc(-n2cnnn2)cc1)N1CCCCC1, the activity change (PNC), negative = inhibition is reported as inactive: 35.5%. For Cc1ccc(S(=O)(=O)Nc2ccccc2CNc2ncc(Br)cc2Br)cc1, the activity change (PNC), negative = inhibition was inconclusive: -68.6%. In the case of COc1ccc(OC)c(NC(=O)Nc2nnc(N3CCC(C)CC3)s2)c1, the activity change (PNC), negative = inhibition is reported as inactive: 47.2%. For O=[N+]([O-])c1ccc(NC(=S)N2CCN(c3ccccc3)CC2)cc1, the activity change (PNC), negative = inhibition was inactive: -16.4%. With Cc1cccc(N2CCN(CC(=O)Nc3nccs3)CC2)c1C the activity change (PNC), negative = inhibition was inconclusive: -51.7%. For CCOC(=O)c1cccc(NC(=O)C2CCN(S(=O)(=O)c3cnc[nH]3)CC2)c1, the activity change (PNC), negative = inhibition was inconclusive: -64.6%. With CN(C(=O)COC(=O)c1cc(-c2ccccc2Cl)nc2ccccc12)C1CCS(=O)(=O)C1 (stereo unspecified) the activity change (PNC), negative = inhibition was inactive: 32%. For COC(=O)C1CC(=O)c2sccc2C1 (stereo unspecified), the activity change (PNC), negative = inhibition was inactive: -1.22%. With COC(=O)c1ccc(C2C(C#N)=C(N)Oc3cc(C)n(C)c(=O)c32)cc1 (stereo unspecified) the activity change (PNC), negative = inhibition was inactive: 37.8%. With CCOCCCNC(=O)c1ccc(N(C)S(=O)(=O)c2ccc(OC)cc2)cc1 the activity change (PNC), negative = inhibition was inconclusive: -42.4%. For CC(NC(=S)Nc1ccc(Cl)cc1)C(c1ccccc1)N1CCOCC1 (stereo unspecified), the activity change (PNC), negative = inhibition was inconclusive: -38.7%. In the case of CCOc1ccc(NC(=O)CS(=O)(=O)c2cn(CC)c3ccccc23)cc1, the activity change (PNC), negative = inhibition is reported as inactive: -3.16%. For CCn1c(=O)c(C(=O)Nc2nc3ccccc3[nH]2)c(O)c2ccccc21, the activity change (PNC), negative = inhibition was inactive: 0.761%. With Cc1cccc(NC(=O)CC(C)(C)C)c1 the activity change (PNC), negative = inhibition was inconclusive: -51.5%. For COc1ccc(CC(=O)NC2CCN(CC(=O)Nc3ccc4c(c3)OCCO4)CC2)cc1OC, the activity change (PNC), negative = inhibition was inactive: -17.4%. With Cc1onc(-c2ccccc2)c1C(=O)Nc1ccc(OC(C)C)cc1 the activity change (PNC), negative = inhibition was inconclusive: -37.7%. For CC(C)OC(=O)NCCOC(=O)Nc1ccc(Cl)c(Cl)c1, the activity change (PNC), negative = inhibition was inactive: 8.93%. In the case of CC(C)[C@H](NC(=O)Nc1ccc(Oc2ccccc2)cc1)C(=O)O, the activity change (PNC), negative = inhibition is reported as inconclusive: -68.1%. For O=C(Nc1nnc(-c2ccco2)s1)C1CCCCC1, the activity change (PNC), negative = inhibition was inconclusive: -56.4%. For COc1cc(C(=O)OCC(=O)Nc2cc(-c3cc(C)c(C)cc3C)nn2-c2ccccc2)cc(OC)c1OC, the activity change (PNC), negative = inhibition was inconclusive: -62.6%. With COCCCN1C(=O)C(O)=C(C(=O)c2ccco2)C1c1ccccc1 (stereo unspecified) the activity change (PNC), negative = inhibition was inconclusive: -57.6%. With CC(C)CNC(=O)CSc1nc2scc(-c3ccccc3)c2c(=O)[nH]1 the activity change (PNC), negative = inhibition was inconclusive: -44%. For CCN(Cc1ccccc1)C(c1cc2ccc(C)cc2[nH]c1=O)c1nnnn1CCOC (stereo unspecified), the activity change (PNC), negative = inhibition was inactive: 49.4%. In the case of COc1ccc(N(C)S(=O)(=O)c2cccc(C(=O)OC(C(=O)Nc3cc(C)cc(C)c3)c3ccccc3)c2)cc1 (stereo unspecified), the activity change (PNC), negative = inhibition is reported as active: -102%. With O=C(/C=N/O)NCCCN1CCOCC1 the activity change (PNC), negative = inhibition was inconclusive: -64.6%. With CCCN1C(=O)C2C(C(=O)Nc3cccc(OC)c3)C3C=CC2(O3)C1C(=O)NC1CCCCC1 (stereo unspecified) the activity change (PNC), negative = inhibition was inconclusive: -50.4%. In the case of COc1ccc(CNC(=O)Cn2cnc3c(=O)n(C)c(=O)n(C)c32)cc1, the activity change (PNC), negative = inhibition is reported as inconclusive: -57.7%. For CC(NC(=O)C1CCC1)c1ccc(Cl)cc1 (stereo unspecified), the activity change (PNC), negative = inhibition was inactive: 35%. For C#CCSc1nnc(-c2ccc(C)cc2)o1, the activity change (PNC), negative = inhibition was inconclusive: -31.5%. In the case of COCc1cc(Sc2ccc(Cl)cc2Cl)nc(-c2ccccc2)n1, the activity change (PNC), negative = inhibition is reported as inconclusive: -33.9%. For COc1nc(NCc2ccc(Cl)cc2)nc(OC)n1, the activity change (PNC), negative = inhibition was inconclusive: -64.4%. In the case of Cc1ccc(/C=C/C(=O)Nc2ncc(C)s2)o1, the activity change (PNC), negative = inhibition is reported as inactive: 29.2%. With Cc1cc(C)c(NC(=O)c2ccc[n+](Cc3ccc([N+](=O)[O-])cc3)c2)c(C)c1 the activity change (PNC), negative = inhibition was inconclusive: -30.6%. In the case of O=C(CN1CCN(Cc2ccccc2)CC1)c1c[nH]c2ccccc12, the activity change (PNC), negative = inhibition is reported as inactive: -1.3%. In the case of S=C(NCCC1=CCCCC1)Nc1ccccc1, the activity change (PNC), negative = inhibition is reported as inconclusive: -43.7%. In the case of CC1CCN(CCOc2ccccc2-c2ccccc2)CC1, the activity change (PNC), negative = inhibition is reported as active: -105%. With CCOC(=O)c1c(NC(=O)CSc2nncn2C)sc(C)c1C the activity change (PNC), negative = inhibition was active: -80.6%. In the case of N=c1ccn(Cc2ccc(Cl)cc2)cc1, the activity change (PNC), negative = inhibition is reported as inconclusive: -36%. In the case of O=C(O)CSC1CC(=O)N(c2cccc(Cl)c2)C1=O (stereo unspecified), the activity change (PNC), negative = inhibition is reported as inconclusive: -42.4%. For Cc1ccc(S(=O)(=O)N(CCC(=O)O)Cc2ccc(Cl)cc2)cc1, the activity change (PNC), negative = inhibition was inactive: 11.5%. In the case of C=CCn1c(SC(C)CC)nc(O)cc1=O (stereo unspecified), the activity change (PNC), negative = inhibition is reported as inconclusive: -41%. For CCn1c(CCCNC(=O)c2ccc(F)cc2)nc2ccccc21, the activity change (PNC), negative = inhibition was inconclusive: -43.5%. With O=C(Cn1nnc(-c2ccccc2F)n1)Nc1cccc2ncccc12 the activity change (PNC), negative = inhibition was active: -81.8%. With COc1cc(/C=C2/NC(=O)N(Cc3ccccc3F)C2=O)ccc1Oc1ccc([N+](=O)[O-])cn1 the activity change (PNC), negative = inhibition was inactive: 15.4%. For CCOC(=O)c1cnn(-c2nc(C)cc(C)n2)c1N, the activity change (PNC), negative = inhibition was inconclusive: -52.9%. In the case of O=C(Nc1ccccn1)c1onc2c1CCCC2, the activity change (PNC), negative = inhibition is reported as inconclusive: -42.2%. In the case of O=C(NCCc1ccc(Cl)cc1)C1CCN(C(=O)c2sccc2-n2cccc2)CC1, the activity change (PNC), negative = inhibition is reported as inactive: -25.1%. With CCOC(=O)Cn1c(=N)n(CCOc2cccc(C)c2)c2ccccc21 the activity change (PNC), negative = inhibition was active: -97.1%. With C=CCNc1nc(NC(C)(C)CO)nc(OCC)n1 the activity change (PNC), negative = inhibition was inconclusive: -48.3%. For CC1CN(C(=S)SCC(=O)c2ccc(Cl)cc2)CC(C)O1 (stereo unspecified), the activity change (PNC), negative = inhibition was inconclusive: -42.4%. For Cc1c(C(=O)OCC(C)C)[nH]c2c1C(=O)CC(c1cccs1)C2 (stereo unspecified), the activity change (PNC), negative = inhibition was active: -88.2%. With Clc1ccc(-c2nc3n(n2)Cc2ccccc2-3)cc1 the activity change (PNC), negative = inhibition was inconclusive: -62.5%. For O=C(COc1cccc2c1CCN(Cc1ccccc1)C2=O)NCc1ccco1, the activity change (PNC), negative = inhibition was inconclusive: -41.4%. For Cn1nc(C(F)(F)F)c(C(=O)Nc2ccc(Cl)cc2)c1Cl, the activity change (PNC), negative = inhibition was inconclusive: -53.2%. In the case of C/C(=C\C(=O)C(F)(F)F)Nc1cc(C)cc(C)c1, the activity change (PNC), negative = inhibition is reported as active: -84.8%. With Cc1cc(C(F)F)n2ncc(C(=O)N3CCc4ccccc4C3)c2n1 the activity change (PNC), negative = inhibition was inactive: -21.6%. In the case of O=C(COc1ccc(Cl)cc1Cl)Nn1c(=S)[nH]c2ncccc2c1=O, the activity change (PNC), negative = inhibition is reported as inconclusive: -47.5%. For C=CCn1c(C(C)NC(=O)COC)nc2ccccc21 (stereo unspecified), the activity change (PNC), negative = inhibition was inconclusive: -69.5%. For Nc1nc(C2CC2)c(Sc2sc(N)nc2C2CC2)s1, the activity change (PNC), negative = inhibition was inconclusive: -44.6%. For CNC(=O)CN(C1CCCCC1)S(=O)(=O)c1ccc(OC)c(Cl)c1, the activity change (PNC), negative = inhibition was inactive: 19.1%. With CC(=NCCN1CCN(C(C)=C2C(=O)c3ccccc3C2=O)CC1)C1=C(O)CC(C)(C)CC1=O the activity change (PNC), negative = inhibition was inconclusive: -66%. With COc1cccc(C2C(C(=O)c3cccs3)=C(O)C(=O)N2c2cc(C)on2)c1 (stereo unspecified) the activity change (PNC), negative = inhibition was inactive: 30.6%. With Cc1cccc(OCC(=O)Nc2cccc(C(=O)Nc3ccccc3C(=O)O)c2)c1 the activity change (PNC), negative = inhibition was inactive: -29.1%. With CCC(Oc1ccccc1)C(=O)Nc1cc(C)on1 (stereo unspecified) the activity change (PNC), negative = inhibition was inactive: -16.9%. In the case of CN(C)c1ccc(/C=N/N2C(=S)SC(C)(C)C2N(O)C(=O)Nc2ccc([N+](=O)[O-])cc2)cc1 (stereo unspecified), the activity change (PNC), negative = inhibition is reported as inactive: 29%. For CCOC(=O)c1sc(=S)n(C)c1NC(=O)c1ccccc1C, the activity change (PNC), negative = inhibition was inconclusive: -55.4%. In the case of CCOC(=O)C1=C(N)N(c2ccc(C)cc2)C2=C(C(=O)CCC2)C1c1cccs1 (stereo unspecified), the activity change (PNC), negative = inhibition is reported as inconclusive: -53.8%. For O=C(Nc1ccc2c(c1)OCO2)c1cc2n(n1)C(C(F)(F)F)CC(c1ccccc1)N2 (stereo unspecified), the activity change (PNC), negative = inhibition was inactive: 52.6%. With CCc1c(C)nc2ncnn2c1N1CCC(C(=O)Nc2cccc(C(C)=O)c2)CC1 the activity change (PNC), negative = inhibition was inconclusive: -55.2%.

Source: PubChem BioAssay AID2417 (National Center for Advancing Translational Sciences (NCATS), 2010)
